Experimental findings from publication PMC9922828 are described below.

Protein sequences, listed by entry. Tags and fused reporters are not part of them.
UniProt Q07820: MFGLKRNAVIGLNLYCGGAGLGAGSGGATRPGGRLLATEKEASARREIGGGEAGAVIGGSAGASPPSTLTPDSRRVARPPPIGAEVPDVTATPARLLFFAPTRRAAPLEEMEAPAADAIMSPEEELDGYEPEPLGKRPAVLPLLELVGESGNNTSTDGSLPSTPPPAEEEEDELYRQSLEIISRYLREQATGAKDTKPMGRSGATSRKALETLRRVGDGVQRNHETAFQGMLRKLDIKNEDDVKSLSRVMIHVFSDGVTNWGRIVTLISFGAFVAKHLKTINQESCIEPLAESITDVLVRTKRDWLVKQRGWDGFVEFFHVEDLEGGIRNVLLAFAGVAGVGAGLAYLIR

These are yes or no findings as the source states them, for the method shown. Binding seen in cells or lysates may run through a third protein. Some results given as binding are weak or reduced against the parent protein; the word gives no strength.

The target of experiment [1] is polyhistidine-tagged Mcl-1 (UniProt Q07820). In words: pull-down; Ni-NTA agarose pull-down of 9His-Mcl-1 from lysates (EBC buffer: 50 mM Tris-HCl, 120 mM NaCl, 0.5% NP-40, pH 8.0) of HCT116 Mcl-1 KO cells stably expressing it, with or without alisertib (1 uM, 24 h); 2 h at 4 °C, washes with 10 mM imidazole, elution with imidazole, Western blot. For orientation: Immunoblotting shows a protein as a band on a membrane.

In experiment [2] the target is polyhistidine-tagged Mcl-1, Q07820. The description is as above. As to conditions: remark: other sources report otherwise.

B1: Bad (protein, UniProt Q92934 1-168)
chain: MFQIPEFEPSEQEDSSSAERGLGPSPAGDGPSGSGKHHRQAPGLLWDASHQQEQPTSSSHHGGAGAVEIRSRHSSYPAGTEDDEGMGEEPSPFRGRSRSAPPNLWAAQRYGRELRRMSDEFVDSFKKGLPRPKSAGTATQMRQSSSWTRVFQSWWDRNLGRGSSAPSQ
For B1, the binding entry in experiment [1] is listed as “no binding”.

B2: Noxa, Q13794 1-54 (protein)
chain: MPGKKARKNAQPSPARAPAELEVECATQLRRFGDKLNFRQKLLNLISKLFCSGT
Regarding B2, in experiment [2], the binding entry is given as “binds”.
